PubChem BioAssay AID1224826, NIAID – 2016
This is a random part of about 17,000 reagents. Over the whole deposit, about 1,110 (6.6%) got an active call. 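Active means lowered or raised reporter signal; replicate intensities are raw and not normalised per plate.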 Entries without a mark were called inactive. A reagent listed more than once was tested more than once; the source does not tell the runs apart.

Test: 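Knock-downs that raise or lower Tnf reporter signal after endotoxin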 (primary screen)
System: RAW264.7 G9 macrophages from mouse bearing reporters for p65 (GFP) and the Tnf promoter (mCherry)
Reagent: siRNA pool against mouse genes, 100 nM
Duration: 16 h of LPS stimulation, after 2 days of siRNA transfection
Challenge: bacterial lipopolysaccharide (Salmonella minnesota R595), 10 ng/ml
Measured: 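Nuclear mCherry signal of the Tnf promoter reporter measured by imaging after background removal, scaled to each plate median and turned into robust z-scores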
Direction: Tnf reporter robust z-score: higher = stronger Tnf promoter reporter signal after LPS; Tnf reporter intensity: higher = stronger Tnf promoter reporter signal
Rule for the call: 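a well counts as active at a score of -1.3 or below (Tlr4 knock-down control median) or above 3 (raised signal); controls and wells holding fewer than 50 cells are excluded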
Calls: active = Tnf reporter clearly lowered or raised; inactive = no clear change in Tnf reporter

Target gene	Tnf reporter robust z-score	fewer than 50 cells in well	Tnf reporter intensity, replicate 1	Tnf reporter intensity, replicate 2
Zfp608	2.83	enough cells in well	310	133
Cox20		fewer than 50 cells per well; well left out of calls	154	86.7
Pirb	0.89	enough cells in well	173	164
Lilrb4a	0.67	enough cells in well	269	251
Il4ra	1.25	enough cells in well	377	187
Rcan2		fewer than 50 cells per well; well left out of calls	73.6	44.2
Trpm6	0.28	enough cells in well	192	114
Cuta		fewer than 50 cells per well; well left out of calls	154	29.4
Rnd3	0.8	enough cells in well	424	239
Pou5f1	-0.19	enough cells in well	228	158
Pik3r3	0.67	enough cells in well	281	160
Ube3b	-0.16	enough cells in well	212	225
Fam228b	-0.89	enough cells in well	119	112
Stk25	-0.12	enough cells in well	164	130
Sh3bgrl2	-0.37	enough cells in well	106	142
Babam2	-1.07	enough cells in well	89.3	141
Akr1d1	0.38	enough cells in well	198	182
Crcp	1.65	enough cells in well	297	264
Ykt6	1.11	enough cells in well	175	99.8
Pon3	-0.03	enough cells in well	244	191
Or10ak11	1.21	enough cells in well	257	145
Rbms1	0.64	enough cells in well	473	184
Plcb3	-0.16	enough cells in well	256	162
Zfp947	1.78	enough cells in well	330	258
Fan1	1.89	enough cells in well	277	251
E030024N20Rik	1.91	enough cells in well	305	187
Ercc4	0.09	enough cells in well	212	264
Akap4	0.45	enough cells in well	219	188
Grk1	-0.35	enough cells in well	161	149
Grk1	-0.68	enough cells in well	194	177
Armc1	0.1	enough cells in well	182	166
Kcnj6	0.08	enough cells in well	221	303
Uqcrb	-0.77	enough cells in well	90.7	63.6
Abcb8		fewer than 50 cells per well; well left out of calls	143	75.4
Or5p6	-1.2	enough cells in well	186	20.8
Amph	-0.6	enough cells in well	158	155
Pah	1.41	enough cells in well	324	293
Svopl	-1.52 (active)	enough cells in well	87.9	91.7
Msmo1	-0.27	enough cells in well	316	162
Fam91a1	-1.55 (active)	enough cells in well	108	88.2
H2aj	-0.52	enough cells in well	195	165
Cbfa2t2	-1.09	enough cells in well	114	171
Ubiad1	-1.81 (active)	enough cells in well	112	30.3
Minpp1	-0.85	enough cells in well	185	149
Atp10a	-0.42	enough cells in well	162	126
Pcgf5	0.25	enough cells in well	163	186
Mkrn1	-0.24	enough cells in well	198	103
Mrpl18	0.14	enough cells in well	172	147
Eif4e	-0.77	enough cells in well	184	155
Tas2r117	0.69	enough cells in well	144	95.1
Parp16		fewer than 50 cells per well; well left out of calls	21.2	41.1
Or52ac1	5.56 (active)	enough cells in well	368	230
Morf4l2	2.42	enough cells in well	347	228
Hook3	-0.92	enough cells in well	186	101
Prr5l	-0.48	enough cells in well	210	60.4
Adam25	0.13	enough cells in well	216	195
Scoc	-1.19	enough cells in well	72.3	80.7
Dus1l	1.94	enough cells in well	458	64.8
Or4c112	-1.52 (active)	enough cells in well	110	58.3
Htr2b		fewer than 50 cells per well; well left out of calls	156	58.3
Tbc1d19	0.99	enough cells in well	229	79.1
Lrfn1	-0.67	enough cells in well	134	124
Rxfp2	0	enough cells in well	225	278
Calm3	0.33	enough cells in well	234	162
Zfp804a	0.96	enough cells in well	124	254
6430548M08Rik	0.33	enough cells in well	178	181
Hltf	1.05	enough cells in well	376	293
Tada1	-0.07	enough cells in well	185	157
Ddx41	1.35	enough cells in well	328	192
Ppih	-0.57	enough cells in well	105	104
Serpina1b	-1.2	enough cells in well	163	131
Fimp1		fewer than 50 cells per well; well left out of calls	245	45.4
Bcas1	0.98	enough cells in well	160	261
Mob4	1.23	enough cells in well	234	132
Dapp1	0.87	enough cells in well	229	221
